Data reported in patent publication EP3581587A1 (Shanghai Benemae Pharmaceutical Corporation, dated 2019).
Where a chain is given by its changes, count along the chain named. These are yes or no findings as the source states them, for the method shown. A result given as binding can be weak or reduced; the word gives no strength.

By UniProt entry, the sequences of proteins in these tests, tags left out. Where a name states a change or a piece, a line headed by the entry shows the natural chain unless it says otherwise.
UniProt P03951: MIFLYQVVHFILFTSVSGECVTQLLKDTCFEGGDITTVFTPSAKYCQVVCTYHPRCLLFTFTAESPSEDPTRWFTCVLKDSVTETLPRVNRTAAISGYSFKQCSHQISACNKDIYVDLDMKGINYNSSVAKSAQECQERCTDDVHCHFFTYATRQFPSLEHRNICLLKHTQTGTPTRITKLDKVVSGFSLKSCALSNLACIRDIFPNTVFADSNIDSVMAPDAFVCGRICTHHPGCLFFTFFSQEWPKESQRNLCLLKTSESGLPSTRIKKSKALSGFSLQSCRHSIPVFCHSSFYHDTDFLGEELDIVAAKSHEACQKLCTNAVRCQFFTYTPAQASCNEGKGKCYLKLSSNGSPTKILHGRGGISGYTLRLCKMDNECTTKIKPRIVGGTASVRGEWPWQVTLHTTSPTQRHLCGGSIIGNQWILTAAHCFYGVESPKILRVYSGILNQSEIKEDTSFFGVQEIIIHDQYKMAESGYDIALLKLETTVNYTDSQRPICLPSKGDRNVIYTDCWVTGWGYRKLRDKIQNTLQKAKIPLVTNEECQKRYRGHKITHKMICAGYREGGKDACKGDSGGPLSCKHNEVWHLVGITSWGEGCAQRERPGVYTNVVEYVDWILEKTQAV

Target: human activated coagulation factor XI (FXIa) (human) (UniProt P03951)
Experiment: SPR, captured antibody, FXIa in flow

B1: h-34F8 (antibody, human IgG4, V domains shown)
VH: QVQLQESGPGLVKPSETLSLTCTVSGFSLTTYHVHWVRQPPGKGLEWIGIMWRDGDTYYNSSLKSRVTISRDTSKNQVSLKLSSVTAADTAVYFCARGGTLTTPFTYWGQGTLVTVSS
VL: DVVLTQTPLSLPVTPGEPASISCRSSQSLESRDGNTYLEWYLQKPGQSPQVLLYGVSNRLSGVPDRFSGSGSGTDFTLKISRVEAEDVGVYYCFQATHGPFTFGQGTKLEIKR
- binding: binds

B2: h-42A5 (antibody, human IgG4, V domains shown)
VH: QVTLKESGPVLVKPTETLTLTCTVSGFSLTSYHLHWIRQPPGKALEWMGLMWRDGDTSYNSRLKSRLTISRDTSKSQVVLTMTNMDPVDTATYYCARGMTLATPFLYWGQGTLVTVSS
VL: B1 VL with P12S, E17Q, R32S, V51L, L53I, L60F, V88L, H98R, G99D
- binding: binds

B3: h-19F6 (antibody, human IgG4, V domains shown)
VH: EVQLVESGGGLVQPGRSLRLSCTASGFTFSKYAMSWVRQAPGKGLEWVSAINYDGSTTYYADSVKGRFTLSRDNSKNTLYLQMNSLRAEDTAVYYCARHPFNNFGIWFAYWGQGTLVTVS
VL: QFQLTQPSSVSASVGDRVTITCERSSGDIGDSYVSWYQQKPGQPPKNVIYADDQRPSGVPDRFSGSIDGSGNSASLTISSLQAEDAADYFCQSYDSNIDFNPVFGGGTKLEVK
- binding: binds
